PMC12155470, “Novel Tetraene Macrodiolides Are Effective Inducers of Mitochondrial Apoptosis in Jurkat Cells” (International Journal of Molecular Sciences, 2025)

How the values were obtained:
Jurkat = assay: In vitro cytotoxic activity, 7-AAD flow cytometry, Jurkat; format: cell-based, Human; settings: CC50 fibroblasts / CC50 Jurkat
Text: (§1) The investigation focused on the assessment of the synthesized compounds’ toxicities, utilizing a panel of six diverse cell lines. The selection of cells was based on the specific features of their metabolism, namely, Jurkat, K562, U937, and HL60 cells are suspension cultures of oncohematologic origin, and HEK293 is a conditionally normal line transformed by adenovirus and often used as control cells along with fibroblasts. The normal fibroblast line (Wi-38) utilized in the experiment was diploid and was obtained from the lung tissue of an aborted fetus. The total cytotoxic activity of 16 compounds was studied using flow cytometry.
(§2) Human cancer cell lines, including Jurkat, K562, U937, HL60, and fibroblasts (Wi-38), were obtained from the European Authentic Cell Culture Collection and further cultured according to established standard protocols using sterile methods. The cells were cultivated in RPMI 1640 (for Jurkat and K562) and DMEM (for Wi-38 and HEK293) media (Gibco, Billings, MT, USA), with the addition of […] glutamine, 10% FBS (Sigma, Kanagawa, Japan), and 100 U/mL penicillin–streptomycin (Sigma). All cell types were cultivated in a humidified atmosphere containing 5% CO₂ at a temperature of 37 °C. Subculturing was performed at two- to three-day intervals. The cells were subsequently seeded into 24-well plates at a density of 5 × 10^4 cells per well and incubated overnight. Subsequent subculturing was then performed at two-day intervals, with a seeding density of 1 × 10^5 cells per 24-well plate, using RPMI medium with 10% FBS [49].
(§3) The dissolution of the compounds tested was initially performed in dimethyl sulfoxide (DMSO) with an initial solution of 100 mM in 10% DMSO. Subsequently, the solution was diluted in a complete culture medium, namely, Dulbecco’s medium, modified Eagle’s medium (DMEM), or Roswell Park Memorial Institute medium (RPMI). Substances were added at concentrations of 10, 1, 100, 10, 1, and 0.1 μM on the day after seeding and incubated for 24 h. Following this, the cells were washed with a phosphate-buffered saline (PBS) solution and stained with 7AAD dye, as per the manufacturer’s protocol for flow cytometry. The CC50 value, which characterizes the parameters of toxicity (i.e., the concentration of the compound required for 50% inhibition of cell viability in vitro), was calculated. logC versus % inhibition was plotted, and statistical data processing was performed using Excel and GraphPad Prism v.8.0.2 (San Diego, CA, USA, 2019). The data obtained from three independent experiments were expressed as the mean of three measurements for each concentration, with the standard deviation indicated as well. These values were then relative to the control values (0.1% DMSO), which were taken as 100%.
(§4) 7-AAD (7-aminoactinomycin D) dye (eBioscience™, San Diego, CA, USA) was used to assess cell viability. Following incubation with the test compounds, the cells were harvested, washed with a phosphate–salt buffer (PBS), and subjected to centrifugation at 400× g for five minutes. The cell sediment was resuspended in 200 μL of staining buffer for flow cytometry (PBS without calcium and magnesium, 2.5% FBS) and stained with a 1 mM 7-AAD dye solution for 15 min in the dark at room temperature. Subsequently, all samples, including experimental and control groups, were analyzed using a BD FACSAria™ III Cell Sorter flow cytometer (Milpitas, CA, USA).

K562 = assay: In vitro cytotoxic activity, 7-AAD flow cytometry, K562; format: cell-based, Human; settings: CC50 fibroblasts / CC50 K562
Text: as §1, §2, §3, §4

U937 = assay: In vitro cytotoxic activity, 7-AAD flow cytometry, U937; format: cell-based, Human; settings: CC50 fibroblasts / CC50 U937
Text: as §1, §2, §3, §4

HL60 = assay: In vitro cytotoxic activity, 7-AAD flow cytometry, HL60; format: cell-based, Human; settings: CC50 fibroblasts / CC50 HL60
Text: as §1, §2, §3, §4

Hek293 = assay: In vitro cytotoxic activity, 7-AAD flow cytometry, Hek293; format: cell-based; settings: CC50 fibroblasts / CC50 Hek293
Text: as §1, §2, §3, §4

| SMILES | SI (Jurkat) (Jurkat) | SI (K562) (K562) | SI (U937) (U937) | SI (HL60) (HL60) | SI (Hek293) (Hek293) |
| --- | --- | --- | --- | --- | --- |
| O=C1CC/C=C\CC/C=C\CCC(=O)OCCC/C=C\CC/C=C\CCCO1 [Compound 6a] | 2.6 | 3.0 | 3.3 | 3.8 | 1.4 |
| O=C1CCC/C=C\CC/C=C\CCCC(=O)OCCC/C=C\CC/C=C\CCCO1 [Compound 6b] | 2.9 | 2.8 | 2.7 | 3.0 | 1.3 |
| O=C1CCCC/C=C\CC/C=C\CCCCC(=O)OCCC/C=C\CC/C=C\CCCO1 [Compound 6c] | 2.6 | 2.9 | 3.0 | 2.9 | 1.3 |
| O=C1CCCCC/C=C\CC/C=C\CCCCCC(=O)OCCC/C=C\CC/C=C\CCCO1 [Compound 6d] | 3.2 | 3.5 | 3.9 | 3.7 | 1.3 |
| O=C1CC/C=C\CC/C=C\CCC(=O)OCCCC/C=C\CC/C=C\CCCCO1 [Compound 7a] | 2.5 | 2.8 | 3.0 | 3.2 | 1.3 |
| O=C1CCC/C=C\CC/C=C\CCCC(=O)OCCCC/C=C\CC/C=C\CCCCO1 [Compound 7b] | 3.0 | 3.4 | 3.5 | 3.4 | 1.1 |
| O=C1CCCC/C=C\CC/C=C\CCCCC(=O)OCCCC/C=C\CC/C=C\CCCCO1 [Compound 7c] | 3.2 | 3.5 | 3.4 | 3.8 | 1.2 |
| O=C1CCCCC/C=C\CC/C=C\CCCCCC(=O)OCCCC/C=C\CC/C=C\CCCCO1 [Compound 7d] | 3.3 | 3.5 | 3.9 | 4.1 | 1.2 |
| O=C1CC/C=C\CC/C=C\CCC(=O)OCCCCC/C=C\CC/C=C\CCCCCO1 [Compound 8a] | 3.4 | 3.8 | 3.6 | 3.9 | 1.3 |
| O=C1CCC/C=C\CC/C=C\CCCC(=O)OCCCCC/C=C\CC/C=C\CCCCCO1 [Compound 8b] | 3.2 | 3.5 | 3.7 | 3.5 | 1.3 |
| O=C1CCCC/C=C\CC/C=C\CCCCC(=O)OCCCCC/C=C\CC/C=C\CCCCCO1 [Compound 8c] | 3.6 | 3.8 | 4.1 | 4.4 | 1.3 |
| O=C1CCCCC/C=C\CC/C=C\CCCCCC(=O)OCCCCC/C=C\CC/C=C\CCCCCO1 [Compound 8d] | 3.9 | 4.1 | 5.2 | 5.7 | 1.2 |
| O=C1CC/C=C\CC/C=C\CCC(=O)OCCCCCC/C=C\CC/C=C\CCCCCCO1 [Compound 9a] | 3.3 | 3.9 | 4.0 | 3.9 | 1.4 |
| O=C1CCC/C=C\CC/C=C\CCCC(=O)OCCCCCC/C=C\CC/C=C\CCCCCCO1 [Compound 9b] | 3.3 | 3.5 | 3.9 | 3.9 | 1.1 |
| O=C1CCCC/C=C\CC/C=C\CCCCC(=O)OCCCCCC/C=C\CC/C=C\CCCCCCO1 [Compound 9c] | 3.4 | 4.0 | 4.5 | 4.6 | 1.2 |
| O=C1CCCCC/C=C\CC/C=C\CCCCCC(=O)OCCCCCC/C=C\CC/C=C\CCCCCCO1 [Compound 9d] | 5.3 | 5.8 | 5.2 | 4.7 | 1.5 |
